Some entries share one result that the patent states for a list of compounds.
molecular target: T1, human androgen receptor (hAR) (Homo sapiens, UniProt P10275); assay: reporter gene-based (MMTV-luc luciferase) test for antiandrogenic activity in transfected CV1 cells; assay type: cell-based; details: compounds at 10 μM; high R1881 concentration 3×10^−8 M
T1 construct: expressed in transfected cells; host or cells: CV1 monkey kidney cells (lacking endogenous androgen receptor)
T1 sequence (P10275 1-920): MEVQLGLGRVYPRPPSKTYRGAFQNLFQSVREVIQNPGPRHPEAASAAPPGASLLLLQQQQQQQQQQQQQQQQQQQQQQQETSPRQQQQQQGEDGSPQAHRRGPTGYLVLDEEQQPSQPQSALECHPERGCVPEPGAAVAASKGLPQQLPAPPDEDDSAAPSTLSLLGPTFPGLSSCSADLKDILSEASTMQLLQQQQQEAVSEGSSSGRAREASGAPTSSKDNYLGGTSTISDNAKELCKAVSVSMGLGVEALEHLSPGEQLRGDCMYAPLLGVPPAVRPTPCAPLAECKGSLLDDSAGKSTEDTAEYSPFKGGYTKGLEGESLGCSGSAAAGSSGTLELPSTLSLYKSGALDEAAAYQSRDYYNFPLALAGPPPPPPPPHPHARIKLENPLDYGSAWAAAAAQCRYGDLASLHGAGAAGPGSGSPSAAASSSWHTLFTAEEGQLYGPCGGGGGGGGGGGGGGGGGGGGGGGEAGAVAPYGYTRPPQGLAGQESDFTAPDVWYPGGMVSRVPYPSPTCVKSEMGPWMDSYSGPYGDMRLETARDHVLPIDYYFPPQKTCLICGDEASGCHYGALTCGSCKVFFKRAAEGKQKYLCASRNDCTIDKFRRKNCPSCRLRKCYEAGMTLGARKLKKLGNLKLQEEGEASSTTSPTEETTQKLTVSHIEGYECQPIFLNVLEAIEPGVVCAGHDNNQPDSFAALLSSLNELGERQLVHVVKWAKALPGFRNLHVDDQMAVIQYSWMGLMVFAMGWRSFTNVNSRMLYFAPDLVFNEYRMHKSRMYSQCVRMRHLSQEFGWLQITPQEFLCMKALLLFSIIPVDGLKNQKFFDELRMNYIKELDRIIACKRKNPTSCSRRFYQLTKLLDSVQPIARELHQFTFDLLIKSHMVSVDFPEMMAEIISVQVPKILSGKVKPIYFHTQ
Method: Monkey kidney cells, line CV1, lacking endogenous androgen receptor were cultured in Dulbecco's modified Eagle's medium (DMEM), supplemented with 10% (v/v) fetal calf serum, penicillin (100 IU/ml) and streptomycin (100 IU/ml) at 37° C. and 5% CO2.
For the transfection experiments, cells were seeded onto 6-well tissue culture plates (Nunc, Roskilde, Denmark) with a density of 1.2×10^5 cells per well and grown in DMEM medium supplemented with 10% (v/v) dextran-coated activated charcoal stripped serum. Six hours after seeding, the cells were transfected by using the Ca3(PO4)2 method. The human androgen receptor (hAR) expression vector (0.2 μg) was cotransfected with 1 μg of the reporter plasmid MMTV-luc and 0.2 μg of the cytomegalovirus (CMV)-driven β-galactosidase expression […], as internal control for transfection efficiency. After 14 hours, the medium was replaced either without (white bars in FIGS. […] 1), fractions (FIG. 2) or substances (FIG. 3). After an additional 48 hours, cells were harvested and assayed for luciferase and β-galactosidase activity.
Luciferase activity was determined by injecting luciferin and measuring light emission at 562 nm and expressed as relative light units (RLU) by using the values of β-galactosidase activity for normalisation of the luciferase activity. All transfection assays shown were performed in duplicate and were repeated at least twice.
For determining antiandrogenic activity in the various extracts from the bark of P. africanum, the extracts were used at a concentration of 300 μg/ml.
For determining the antiandrogenic activity in the fractions of the selective methylene chloride extracts, 2 μl of the respective fraction was used, corresponding to a final concentration of 30 μg/ml. Fractions F6 to F10 were additionally tested with 4 μl, corresponding to 60 μg/ml final concentration.

| Compound | inhibition of the AR-mediated transactivation, compared with NBBS (FIG. 6) |
| --- | --- |
| CNS(=O)(=O)c1ccccc1 [S1, N-Methylbenzenesulfonamide] | no significant antiandrogenic action that exceeded the antiandrogenic action of NBBS |
| CCNS(=O)(=O)c1ccccc1 [S2, N-ethylbenzenesulfonamide] | no significant antiandrogenic action that exceeded the antiandrogenic action of NBBS |
| CCCNS(=O)(=O)c1ccccc1 [S3, N-Propylbenzenesulfonamide] | no significant antiandrogenic action that exceeded the antiandrogenic action of NBBS |
| CCCCNS(=O)(=O)c1ccc(F)cc1 [S6, N-Butyl-4-fluorobenzenesulfonamide] | no significant antiandrogenic action that exceeded the antiandrogenic action of NBBS |
| O=S(=O)(NCCO)c1ccccc1 [S7, N-(2-Hydroxyethyl)benzenesulfonamide] | no significant antiandrogenic action that exceeded the antiandrogenic action of NBBS |
| O=S(=O)(NCCO)c1ccc(F)cc1 [S8, 4-Fluoro-N-(2-hydroxyethyl)benzenesulfonamide] | no significant antiandrogenic action that exceeded the antiandrogenic action of NBBS |
